Results as given in PubChem BioAssay AID1487 (National Center for Advancing Translational Sciences (NCATS), 2009).
The list shows a part of the results. Further columns of the screen follow, without active or inactive calls. Most of these compounds were active or inconclusive in the main read-out, so they are no random draw. Words in brackets tell the shape of the fitted curve; partial curves, single points and poor fits give uncertain potencies.

Assay: qHTS Assay for Modulators of Lamin A Splicing
Settings: HeLa LMNA splicing GFP/RFP minigene ratio, 48 h
Method in brief: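 S3 HeLa cells stably expressing lamin A-EGFP splicing minigene plus DsRed2, 600 cells/well, 48 h compound exposure at 37C. Laser-scanning cytometry; analysed as GFP (500-530 nm)/RFP (575-640 nm) total intensity ratio; 0.5% DMSO vehicle.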

[1] = measured here: GFP splicing reporter channel
[2] = measured here: RFP viability control channel

Structure (SMILES) | AC50 [1] | AC50 [2]
COc1cccc(/C=N/NC(=O)c2cc3cc([N+](=O)[O-])ccc3s2)c1O | 35.5 µM [falling, single point] | 0.447 µM [rising, full curve]
COc1ccc(NC(=S)Nc2cccc(Cl)c2Cl)cc1OC | – | 15.8 µM [rising, single point]
O=C(NC(=S)Nc1ncc(Br)cc1Br)c1cncc(Br)c1 | 5.01 µM [rising, partial curve, poor fit] | 15.8 µM [rising, single point]
CCN1CCN(C(=O)c2cc3c(s2)-c2ccccc2S(=O)(=O)C3)CC1 | – | 1.41 µM [rising, partial curve]
Cc1nnc(SCc2cccc(CSc3nnc(C)s3)c2)s1 | – | 35.5 µM [rising, single point]
Cc1ccc(C)c(NS(=O)(=O)c2cc(C(=O)NCCSC3CCCCC3)ccc2C)c1 | 35.5 µM [falling, single point] | 20 µM [falling, single point]
COc1cc(OC)cc(C(=O)N2CCC(N3CCN(c4ccccc4OC)CC3)CC2)c1 | 22.4 µM [rising, single point] | –
Cc1ccc(-c2ccc(/C=C/C(=O)c3ccccc3)o2)cc1 | – | 20 µM [rising, partial curve, poor fit]
CC(C)(C)C1CCC2(CC1)C(C#N)=C(SCC(=O)Nc1ccccc1)NC(=O)C2C#N (configuration not stated) | – | 2.51 µM [rising, full curve]
Cn1c(N)c(N=Nc2ccc(S(N)(=O)=O)cc2)c(=O)n(C)c1=O | 35.5 µM [rising, single point] | –
Cn1nnc2c(N3CCCCC3)nccc21 | 17.8 µM [rising, single point] | 5.62 µM [rising, single point]
O=C(CNC(=S)NC(=O)c1ccc(F)cc1)c1ccccc1 | – | 25.1 µM [falling, partial curve, poor fit]
COc1cc(NC(=O)CN2CCCCC2C)c(C)cc1[N+](=O)[O-] (configuration not stated) | 12.6 µM [rising, partial curve] | 4.47 µM [rising, partial curve]
Cc1nnc2n(Cc3ccccc3)c(=O)c3c4c(sc3n12)COC(C(C)C)C4 (configuration not stated) | – | 0.794 µM [falling, full curve]
Cc1cc(C)nc(N2CCCC(CCC(=O)NCc3ccc(F)c(F)c3)C2)n1 (configuration not stated) | 25.1 µM [falling, partial curve] | 35.5 µM [falling, single point]
CN(C)c1nc(SCCOC(=O)Nc2ccccc2)nc(N(C)C)n1 | – | 25.1 µM [rising, single point]
COC(=O)Nc1ccc(S(=O)(=O)N2CCC(C(=O)N(C)C3CCCCC3)CC2)cc1 | 0.00398 µM [rising, full curve, poor fit] | –
CC1(C)OC(=O)C(=NNc2ccc(Br)cc2)C(=O)O1 | 3.16 µM [rising, single point] | 12.6 µM [rising, single point]
CCOC(=O)CC(=O)CSc1nc2ccccc2c(=O)n1CCc1ccc(S(N)(=O)=O)cc1 | 12.6 µM [falling, single point] | 15.8 µM [falling, single point]
O=S(=O)(c1ccc2c(c1)OCCO2)N1CCC(n2cnc3cc(F)ccc32)CC1 | 0.00891 µM [rising, full curve, poor fit] | 12.6 µM [rising, partial curve]
CC1CCCCN1CCCNC(=O)c1cc(Sc2ccc(Cl)cc2)nc2ccccc12 (configuration not stated) | – | 17.8 µM [rising, partial curve, poor fit]
O=C1c2cccc3cccc(c23)C(=O)N1/N=C/c1ccc(O)cc1O | 35.5 µM [rising, single point] | 35.5 µM [rising, single point]
Cc1nc2cc(-c3ccccc3)sc2c(=O)n1N | 8.91 µM [rising, partial curve] | –
CC12CCC(C(=O)Nc3nc4ccc(Br)cc4s3)(OC1=O)C2(C)C (configuration not stated) | 14.1 µM [rising, single point] | –
O=c1c2ccccc2nc(-c2ccco2)n1Cc1ccccc1 | 7.94 µM [rising, partial curve, poor fit] | 8.91 µM [rising, partial curve, poor fit]
O=c1cc(O)c2sc(Nc3ccc(F)c(Cl)c3)nc2[nH]1 | 35.5 µM [rising, single point] | –
O=C(Nc1cccc(Cl)c1)c1ccc(F)c(S(=O)(=O)N2CCN(c3ccccn3)CC2)c1 | 7.08 µM [rising, partial curve] | 11.2 µM [rising, partial curve]

In the list so far, these have a furan ring, fused or not.
Structure (SMILES) | AC50 [1] | AC50 [2]
Cc1ccc(-c2ccc(/C=C/C(=O)c3ccccc3)o2)cc1 | – | 20 µM [rising, partial curve, poor fit]
O=c1c2ccccc2nc(-c2ccco2)n1Cc1ccccc1 | 7.94 µM [rising, partial curve, poor fit] | 8.91 µM [rising, partial curve, poor fit]

(cont.)

Structure (SMILES) | AC50 [1] | AC50 [2]
CCn1c(C)cc(/C=C2/NC(=O)N(Cc3ccccc3F)C2=O)c1C | 5.01 µM [rising, partial curve] | –
O=C(CSc1nnc(-c2ccccc2)c(-c2ccccc2)n1)NC1CCS(=O)(=O)C1 (configuration not stated) | – | 7.94 µM [rising, partial curve]
CSc1nc(-c2ccc(Cl)cc2Cl)[nH]c(=O)c1C#N | 8.91 µM [rising, partial curve, poor fit] | 11.2 µM [rising, partial curve]
O=C(NC(=S)Nc1ccccc1N1CCCCC1)c1ccccc1 | – | 20 µM [rising, partial curve, poor fit]
CCCCNC(=O)c1onc(CSc2ccc(C)c(C)c2)c1C(=O)O | 25.1 µM [rising, single point] | 20 µM [rising, single point]
O=C(Nc1nccs1)c1ccc2c(=O)n3c(nc2c1)CCCCC3 | – | 7.08 µM [rising, full curve]
CN=C(c1ccc(C)cc1)n1c(=S)nc(-c2ccc(C)cc2)n(C)c1=S | 12.6 µM [falling, partial curve, poor fit] | 28.2 µM [falling, partial curve]
COc1ccc(-c2nc(C)c(CCNC(=O)C(=O)Nc3cc(C)cc(C)c3)s2)cc1OC | 20 µM [falling, partial curve, poor fit] | 17.8 µM [falling, single point]
CCc1nc2ccccc2n1Cc1ccccc1OC | 2.82 µM [rising, full curve, poor fit] | 7.94 µM [rising, partial curve]
O=C(c1ccco1)N1CCC(c2nc(-c3ccc(F)cc3)no2)CC1 | 35.5 µM [rising, single point] | 31.6 µM [rising, single point]
c1ccc(Cn2nnc3c(N4CCN(Cc5ccc6c(c5)OCO6)CC4)ncnc32)cc1 | – | 12.6 µM [rising, single point]
O=c1oc2ccccc2c(Nc2ccc3ccccc3c2)c1[N+](=O)[O-] | 10 µM [falling, partial curve, poor fit] | 10 µM [falling, partial curve]
CN(C)CCNC(=O)c1cc2sc3ccccc3c2s1 | – | 0.1 µM [falling, full curve, poor fit]
COc1cc2nc(CSc3ncn[nH]3)[nH]c(=O)c2cc1OC | – | 7.08 µM [rising, partial curve, poor fit]
O=C(c1ccco1)N(CC1CCCO1)c1nc(-c2ccccc2)cs1 (configuration not stated) | – | 12.6 µM [rising, partial curve]
c1ccc(CCc2nc(-c3ccc(-n4cccc4)cc3)no2)cc1 | – | 31.6 µM [rising, single point]
COc1ccc(N2C(=O)C(Cl)=C(Oc3cccc(OC)c3)C2=O)cc1 | 5.62 µM [falling, partial curve] | 10 µM [falling, partial curve, poor fit]
O=C(NCCc1ccc2c(c1)OCCO2)c1cccc(F)c1 | – | 11.2 µM [rising, partial curve]
CCCn1c(C(O)c2ccc(OCC)cc2)nc2ccccc21 (configuration not stated) | – | 15.8 µM [rising, partial curve]
COc1cccc(/C=N/NC(=O)C(=O)NCc2ccco2)c1O | – | 17.8 µM [rising, single point]
Cc1ccsc1/C=N/NC(=O)CN1CCN(S(=O)(=O)c2ccc(Br)cc2)CC1 | – | 31.6 µM [rising, single point]
CCn1cc(C(=O)NCc2ccc3c(c2)OCO3)c(=O)c2cc(F)c(N3CCN(C(=O)c4ccco4)CC3)cc21 | 7.94 µM [rising, partial curve, poor fit] | 7.94 µM [rising, partial curve, poor fit]
O=S(=O)(c1ccc(OCC(O)CN2CCN(c3ccc(F)cc3)CC2)cc1)N1CCOCC1 (configuration not stated) | – | 14.1 µM [rising, partial curve]
O=C(c1ccc(COc2ccccc2Br)o1)N1N=C(C(F)F)CC1(O)C(F)F (configuration not stated) | – | 35.5 µM [rising, single point]
CN(C)c1nc(N)c([N+](=O)[O-])c(NCc2ccccc2)n1 | 4.47 µM [falling, full curve, poor fit] | 5.01 µM [falling, full curve, poor fit]
O=C(CSc1ccc(-c2cccs2)nn1)Nc1ccccc1F | 0.141 µM [rising, full curve] | 0.178 µM [rising, full curve]
O=C(Nc1ccc2nc(SCC(=O)N3CCCC3)sc2c1)c1cccc(Cl)c1 | – | 17.8 µM [rising, partial curve]
